Data from patent US20090047379A1, “Benzamide Compounds Useful as High Potency Sweet Taste Enhancers” (priority 2007, published 2009).
For at least one compound, name, drawing or mass did not settle the structure.

Tested on: sweet taste
Test: Comparisons of taste quality and intensity, solutions in water (Example 12, Table I)
Set-up: species or system human
Conditions: in vivo
Excerpt: Sweetness is rapid and fades quickly on rinsing of the mouth.

For CC1CCCCC1NC(=O)c1c(F)c(F)cc(F)c1F (stereo not shown) [Example 10, N-(2-methylcyclohexyl)-2,3,5,6-tetrafluoro-benzamide], the Other taste attributes was “Slight bitterness”.
